Experimental data: PubChem BioAssay AID1259267 (Sanger Institute, 2017)
Purpose: 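Which kinases and bowel-cancer genes GP5D cells need, with or without anchor drugs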 (primary screen). Cell system: human GP5D colorectal cancer cells. Reagent: siRNA pool against human genes. Challenge: anchor drugs at low dose: BYL719 1 µM, cetuximab 5 µg/ml, trametinib 10 nM, or DMSO vehicle. Measurement: 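Mean replicate viability versus non-targeting pool, given as knock-down-alone robust z-score, DMSO fraction, and synergy with low-dose BYL719, cetuximab or trametinib (1 µM, 5 µg/ml, 10 nM)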. Reading the numbers: robust z-score, knock-down alone and viability with DMSO: higher = more viable cells; synergy score with trametinib and synergy score with BYL719 and synergy score with cetuximab: higher = stronger synthetic lethal synergy with drug. Rule for the call: 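a robust z-score below -3 for the knock-down by itself makes a gene active, i.e. essential alone; synergy scores are ignored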. Calls: active = essential alone; inactive = not essential.
The whole screen tested 794 reagents; this is an unselected part. Of all reagents, 9 (1.1%) got an active call. 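Viability capped at 1; calls reflect loss of viability from knock-down alone, not synergy with drugs.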 The record does not give: the amount of reagent, the time to read-out.

target gene	PubChem SID	robust z-score, knock-down alone	viability with DMSO (fraction of control)	synergy score with trametinib	synergy score with BYL719	synergy score with cetuximab	Outcome
ALDH18A1	SID152152799	0.636	0.962	-0.0255	0.0179	-0.0653	inactive
MAP3K4	SID152151893	0.489	0.931	-0.0679	-0.153	-0.131	inactive
AGK	SID56479172	0.817	1	0.0169	-0.155	-0.126	inactive
FBXW7	SID152153107	0.817	1	0.356	-0.32	-0.00145	inactive
PDK2	SID56478952	0.778	0.992	0.455	-0.0164	0.224	inactive
AK2	SID56479162	0.698	0.975	0.475	-0.0352	0.0245	inactive
PFKL	SID56479167	-0.434	0.735	-0.173	-0.303	-0.234	inactive
ALPK1	SID152152286	-0.844	0.648	0.24	-0.042	0.113	inactive
CKMT1B	SID135621236	0.817	1	0.134	-0.109	-0.105	inactive
GRK3	SID135620814	0.74	0.984	0.0604	-0.316	-0.0886	inactive

Continued; the last 2 above are carried over.
target gene	PubChem SID	robust z-score, knock-down alone	viability with DMSO (fraction of control)	synergy score with trametinib	synergy score with BYL719	synergy score with cetuximab	Outcome
CKMT1B	SID135621236	0.817	1	0.134	-0.109	-0.105	inactive
GRK3	SID135620814	0.74	0.984	0.0604	-0.316	-0.0886	inactive
CAMK1G	SID56478930	0.817	1	-0.197	-0.158	-0.132	inactive
NIM1K	SID56478948	0.817	1	-0.126	-0.361	-0.142	inactive
IGF2R	SID152150296	0.143	0.857	-0.153	-0.299	-0.127	inactive
ILK	SID152151227	0.817	1	-0.0473	-0.299	-0.142	inactive
ILK	SID152153406	0.817	1	0.384	-0.108	-0.142	inactive
PIP5K1A	SID56478868	-0.822	0.653	-0.153	-0.279	-0.388	inactive
MTOR	SID135620602	0.817	1	0.0881	0.0135	0.00469	inactive
PIP5KL1	SID56479217	0.817	1	-0.13	-0.0709	-0.127	inactive
EFNA5	SID152151552	0.445	0.921	-0.163	-0.0211	-0.149	inactive
PBK	SID56479058	0.438	0.92	-0.0488	-0.248	-0.144	inactive
